# Results: patent publication US6670307B2, “1,3-oxazoline and 1,3-thiazoline derivatives, their preparation, and their use as pesticides” (Hoechst Schering AgrEvo GmbH, priority 1998, dated 2003)
# Some entries share one result that the patent states for a list of compounds.
# Columns and labels:
# Type in all cases: in vivo
# Spodoptera litoralis = experiment: Effect on the butterfly larva Spodoptera litoralis (L4 larvae, Petri dish spray); settings: 300 ppm (based on active substance content), L4 larvae sprayed, after 4 days at approx. 23° C.
# Experimental: Effect on the Butterfly Larva Spodoptera litoralis
# Ten L4 larvae of the Egyptian cotton leafworm (Spodoptera litoralis) were introduced into a Petri dish whose bottom was covered with filter paper and contained approx. 5 ml of nutrient medium. Filter paper, nutrient paper and the larvae which had been introduced were then sprayed with an aqueous solution of the formulated preparation to be tested. The Petri dish was subsequently sealed with a lid. After 4 days' storage at approx. 23° C., the effect of the preparation on the larvae was determined. At a concentration of 300 ppm (based on the active substance content), a 90-100% larval mortality was caused by the preparations of Examples 3, 4, 22, 105, 106.
# Tetranychus urticae = experiment: Effect on the spider mites Tetranychus urticae (spray on infested bean plants); settings: 300 ppm (based on active substance content), bean plants sprayed to runoff, after 7 days
# Experimental: Effect on the Spider Mites Tetranychus urticae
# Bean plants (Phaseolus vulgaris) which were severely infested with a complete population of spider mites (Tetranychus urticae) were sprayed to runoff point with an aqueous solution of the formulated preparation to be tested. The mortality of all mite stages was determined after 7 days. At a concentration of 300 ppm (based on active substance content), a 90-100% mortality was shown by the preparations of Examples 1, 2, 3, 4, 7, 8, 9, 14, 18, 21, 31, 40, 41, 43, 44, 47, 51, 106, 152 and 153.
# Aphis fabae = experiment: Effect on the aphid Aphis fabae (spray on infested field beans); settings: 300 ppm (based on active substance content), field beans sprayed to runoff, after 3 days
# Experimental: Effect on the Aphid Aphis fabae
# Field beans (Vicia faba) which were densly populated with the black bean aphid (Aphis fabae) were sprayed to runoff point with an aqueous solution of the formulated preparation to be tested. The mortality of the aphids was determined after 3 days. At a concentration of 300 ppm (based on the active substance content), a 90-100% mortality was shown by the preparations of Examples 1, 2, 3, 4, 7, 8, 152.
# Heliothis virescens = experiment: Effect on the egg-larval stage of Heliothis virescens; settings: 300 ppm (based on active substance content), eggs immersed 5 seconds, after 6 days at approx. 25° C.
# Experimental: Effect on the Egg-Larval Stage of Heliothis virescens
# A Petri dish whose bottom was covered with filter paper and which contained approx. 5 ml of nutrient medium was prepared. Filter paper sections containing approx. 30 24-hour-old eggs of the tobacco budworm (Heliothis virescens) were immersed for 5 seconds into an aqueous solution of the formulated preparation to be tested and subsequently placed in the Petri dish. A further 200 μl of the aqueous solution were distributed over the nutrient medium. After the Petri dish had been sealed, it was stored in a controlled-environment cabinet at approx. 25° C. After 6 days' storage, the mortality of the preparation on the eggs and any larvae hatched from them was determined. At a concentration of 300 ppm (based on the active substance content), a 90-100% mortality was caused by the preparations of Examples 1, 2, 3, 4, 5, 6, 7, 8, 14, 17, 21, 22, 23, 34, 35, 39, 40, 43, 44, 106.
SMILES,larval mortality (Spodoptera litoralis),mortality of all mite stages (Tetranychus urticae),mortality of the aphids (Aphis fabae),mortality of eggs and any larvae hatched from them (Heliothis virescens)
Fc1cccc(Cl)c1C1=NC(c2ccc(-c3ccc(OCC(F)(F)F)nc3)cc2)CO1 (stereo not drawn) [Example 22],90-100%,–,–,–
CCOc1ccc(-c2ccc(C3COC(c4c(F)cccc4F)=N3)c(OC)c2)cn1 (stereo not drawn) [Example 105],90-100%,–,–,–
COc1ccc(-c2ccc(C3COC(c4c(F)cccc4F)=N3)cc2)cn1 (stereo not drawn) [Example 1],–,90-100%,90-100%,90-100%
Fc1cccc(F)c1C1=NC(c2ccc(-c3ccc(OCC(F)(F)C(F)F)nc3)cc2)CO1 (stereo not drawn) [Example 6],–,–,–,90-100%
